Drawing on paper PMC6915307, this text covers binding for two substances.

The chains behind the UniProt entries cited, without tags or fusion partners. Where a name states a change or a piece, a line headed by the entry shows the natural chain unless it says otherwise.
UniProt P18206: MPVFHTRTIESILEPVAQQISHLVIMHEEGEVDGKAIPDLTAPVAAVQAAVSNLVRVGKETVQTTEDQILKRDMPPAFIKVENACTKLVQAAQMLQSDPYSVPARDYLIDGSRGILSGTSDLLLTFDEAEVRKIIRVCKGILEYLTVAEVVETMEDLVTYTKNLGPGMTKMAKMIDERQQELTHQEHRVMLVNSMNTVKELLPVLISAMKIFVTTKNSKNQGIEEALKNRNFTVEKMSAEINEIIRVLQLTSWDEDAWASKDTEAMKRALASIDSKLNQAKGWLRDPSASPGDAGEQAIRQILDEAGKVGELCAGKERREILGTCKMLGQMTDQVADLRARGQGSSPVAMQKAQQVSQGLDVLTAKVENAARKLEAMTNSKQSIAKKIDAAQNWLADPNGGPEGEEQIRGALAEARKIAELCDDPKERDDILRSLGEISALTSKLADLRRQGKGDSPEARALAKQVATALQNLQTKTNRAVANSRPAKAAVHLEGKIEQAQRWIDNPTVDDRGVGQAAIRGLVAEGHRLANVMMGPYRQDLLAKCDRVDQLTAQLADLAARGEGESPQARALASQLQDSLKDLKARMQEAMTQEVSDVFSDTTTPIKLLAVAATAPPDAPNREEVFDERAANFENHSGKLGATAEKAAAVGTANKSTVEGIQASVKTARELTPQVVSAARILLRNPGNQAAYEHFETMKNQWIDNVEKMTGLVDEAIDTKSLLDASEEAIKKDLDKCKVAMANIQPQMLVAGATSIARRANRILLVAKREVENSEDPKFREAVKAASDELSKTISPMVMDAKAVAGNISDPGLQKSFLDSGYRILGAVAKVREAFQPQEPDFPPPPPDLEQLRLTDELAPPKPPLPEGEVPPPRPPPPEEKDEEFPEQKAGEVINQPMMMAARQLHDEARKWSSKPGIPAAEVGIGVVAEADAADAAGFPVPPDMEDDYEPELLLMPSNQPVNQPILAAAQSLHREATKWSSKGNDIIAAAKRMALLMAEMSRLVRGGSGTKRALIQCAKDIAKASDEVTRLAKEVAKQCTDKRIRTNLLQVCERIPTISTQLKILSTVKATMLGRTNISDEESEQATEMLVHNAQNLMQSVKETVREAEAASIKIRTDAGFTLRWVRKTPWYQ
UniProt O96013: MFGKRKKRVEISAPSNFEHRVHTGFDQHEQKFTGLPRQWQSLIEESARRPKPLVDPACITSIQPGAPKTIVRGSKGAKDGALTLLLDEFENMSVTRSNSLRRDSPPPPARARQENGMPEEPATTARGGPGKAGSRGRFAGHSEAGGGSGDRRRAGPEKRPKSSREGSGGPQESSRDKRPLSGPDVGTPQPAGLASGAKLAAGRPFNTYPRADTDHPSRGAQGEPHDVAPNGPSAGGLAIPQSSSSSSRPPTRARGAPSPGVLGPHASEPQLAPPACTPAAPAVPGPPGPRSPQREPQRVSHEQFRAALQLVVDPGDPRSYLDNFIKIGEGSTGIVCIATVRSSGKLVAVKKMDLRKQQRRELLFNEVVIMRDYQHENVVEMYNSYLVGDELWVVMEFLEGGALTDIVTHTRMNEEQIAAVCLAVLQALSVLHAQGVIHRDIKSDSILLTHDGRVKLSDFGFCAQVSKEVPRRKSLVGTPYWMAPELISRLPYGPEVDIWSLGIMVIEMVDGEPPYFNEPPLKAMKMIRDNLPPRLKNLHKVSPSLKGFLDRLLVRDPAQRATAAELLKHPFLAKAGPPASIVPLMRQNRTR

Assay [1] has as its target vinculin (human (endogenous in THP-1)) (UniProt P18206). Description: co-IP; THP-1 cells stably expressing EGFP-PAK4, seeded on fibronectin with TGF-beta for 16 h; lysate (0.5% NP-40 lysis buffer) incubated with 1-2 ug anti-paxillin or anti-vinculin overnight at 4 C, protein A/G agarose; blots probed for PAK4 and reprobed for GFP.
The target is the same in assay [2]. Description: co-IP; endogenous PAK4 in immunoprecipitates when a large number of cells was used (Figure S4C).

Results are given in words; binding and its absence hold for the method and conditions named. In cells and extracts the contact can be indirect. A result given as binding can be weak or reduced; the word gives no strength.

As for “EGFP-PAK4 (from UniProt O96013 1-591) (enzyme)”, the binding result in assay [1] was “binds”.

As for “endogenous PAK4 (from UniProt O96013 1-591) (enzyme)”, the binding entry in assay [2] was “binds weakly”.
